In experiment [1] the target is PD-1 Y248F NanoBiT fusions in HEK-293 cells with kinase-active Fyn (human) (UniProt Q15116). As to the kind of experiment: split reporter; NanoBiT in live HEK-293 cells co-transfected with PD-1-LgBiT, PD-1-SmBiT, SHP-2 and Fyn (kinase active or inactive); luminescence 30 h after transfection.
The target of experiment [2] is T1, Monophosphoryl ITIM peptide of PD-1 (ITIM-pY223) (human).
T1 sequence (peptide, phosphotyrosine (pY) at PD-1 Y223, position 14 of the peptide): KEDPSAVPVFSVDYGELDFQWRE
Description: condition: 320 nM (the maximum SHP-2 concentration tested); SPR; Biacore 3000; phosphopeptide immobilised on a CM5 chip by amine coupling; SHP-2-full-length at 0, 20, 40, 80, 160, 320 nM; HBS-P with 6.6 mM phosphate and 10 mM DTT, pH 7.4; 900 s association, 900 s dissociation; both purified. In general terms: In SPR one partner is held on a chip, and binding of the other changes the refractive index at the surface.

The target of experiment [3] is T2, t-SHP-2 (SHP-2 amino acids 1-225, tandem N-SH2 and C-SH2 domains) (UniProt Q06124).
T2 sequence: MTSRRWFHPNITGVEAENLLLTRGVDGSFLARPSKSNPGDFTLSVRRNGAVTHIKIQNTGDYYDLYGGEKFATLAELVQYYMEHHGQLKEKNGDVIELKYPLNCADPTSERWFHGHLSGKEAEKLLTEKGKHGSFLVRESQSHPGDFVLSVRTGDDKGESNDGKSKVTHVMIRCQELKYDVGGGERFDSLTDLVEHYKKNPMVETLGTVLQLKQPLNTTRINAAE
Description: native gel or EMSA; 2 uM t-SHP-2 mixed with phosphopeptide at various molar ratios in 50 mM HEPES, 100 mM NaCl, pH 7.4, 1 h at room temperature; Native PAGE at 4 C, 8-16% Tris-Glycine gel, Coomassie stain; both purified. (In general: Mobility shift assays separate free from complexed probe on a gel.)

No constants are given. Whether binding was seen depends on the method and setting. For part of these data: In cells and extracts the contact can be indirect.

Turning to “PD-1 Y248F NanoBiT fusions in HEK-293 cells with kinase-active Fyn (from UniProt Q15116 25-288) (receptor)”, the binding result in experiment [1] is recorded as “no binding”.
With “SHP-2 wild-type full-length, purified recombinant protein (from UniProt Q06124 1-593) (enzyme)”, in experiment [2], the binding entry is given as “no binding”.
KEDPSAVPVFSVDYGELDFQWRE (phosphotyrosine (pY) at PD-1 Y223, position 14 of the peptide) [Monophosphoryl ITIM peptide of PD-1 (ITIM-pY223)]: the binding entry in experiment [3] is “no binding”.
